Data as given in PubChem BioAssay AID1053208 (Peter MacCallum Cancer Centre, 2014).
Shown is a random part of about 17,000 reagents. In the full data, 788 (4.7%) were called active. 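Calls rest on z-score classes alone; an extra cut-off of viability at most 70% of control was not applied to them.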 Not all columns of the deposit are shown. No sequences are given here.

Purpose: 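Find knock-downs that sensitise mouse osteosarcoma cells to doxorubicin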 (primary screen)
Cell system: mouse osteosarcoma cells, early-passage culture from an engineered mouse model of fibroblastic bone tumour
Reagent: siRNA pool against mouse genes, 40 nM
Time to read-out: about 120 h (48 h before drug, then 72 h with drug)
Conditions: doxorubicin 100 nM for 72 h, roughly 30-40% inhibitory dose
Read-out: 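Luminescent ATP signal taken as viability with or without 100 nM doxorubicin for 72 h; mean of two wells set against non-targeting siRNA and turned into robust z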
Scale: viability z-score with doxorubicin: higher = more viable cells under doxorubicin; viability z-score without drug: higher = more viable cells with knock-down alone
Hit rule: 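a pool counts as active when its viability z-score with doxorubicin is -2 or below and its z-score without drug lies between -2 and 2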

Which result is listed for Nup188?
combined z-score class: low cell count with and without drug; viability z-score with doxorubicin: -3.15; viability z-score without drug: -2.19; call: inactive

What is on record for Rae1?
combined z-score class: low cell count without drug only; viability z-score with doxorubicin: -0.45; viability z-score without drug: -2.53; call: inactive

For Phxr5, what does the deposit list?
combined z-score class: no change with or without drug; viability z-score with doxorubicin: -1.57; viability z-score without drug: 0.17; call: inactive

For Irf2bpl, what does the deposit list?
combined z-score class: high cell count without drug only; viability z-score with doxorubicin: 1.69; viability z-score without drug: 2.19; call: inactive

How did the screen score Tulp2?
combined z-score class: no change with or without drug; viability z-score with doxorubicin: 0.11; viability z-score without drug: -0.17; call: inactive

Which result is listed for Aimp1?
combined z-score class: no change with or without drug; viability z-score with doxorubicin: -0.9; viability z-score without drug: -0.67; call: inactive

For Mak16, how do the results read?
combined z-score class: no change with or without drug; viability z-score with doxorubicin: 0.79; viability z-score without drug: 1.85; call: inactive

For Eif4ebp1, what was measured?
combined z-score class: no change with or without drug; viability z-score with doxorubicin: -0.67; viability z-score without drug: 0.17; call: inactive

With Or51q1c, how do the results read?
combined z-score class: no change with or without drug; viability z-score with doxorubicin: 0.67; viability z-score without drug: -0.34; call: inactive

With Melk, what does the deposit list?
combined z-score class: no change with or without drug; viability z-score with doxorubicin: 0.67; viability z-score without drug: -0.17; call: inactive

How did the screen score Or12e1?
combined z-score class: no change with or without drug; viability z-score with doxorubicin: 1.12; viability z-score without drug: 0.17; call: inactive

Records above whose target name starts with M or m (2):
Mak16: combined z-score class = no change with or without drug; viability z-score with doxorubicin = 0.79; viability z-score without drug = 1.85; call = inactive
Melk: combined z-score class = no change with or without drug; viability z-score with doxorubicin = 0.67; viability z-score without drug = -0.17; call = inactive

Further records follow.
What did the screen give for Erp29?
combined z-score class: no change with or without drug; viability z-score with doxorubicin: 0; viability z-score without drug: 0.67; call: inactive

With Or7g32, what was measured?
combined z-score class: no change with or without drug; viability z-score with doxorubicin: 0.56; viability z-score without drug: 1.01; call: inactive

With Kera, what does the deposit list?
combined z-score class: no change with or without drug; viability z-score with doxorubicin: -0.79; viability z-score without drug: -0.84; call: inactive

For Smarca2, what does the deposit list?
combined z-score class: no change with or without drug; viability z-score with doxorubicin: -0.56; viability z-score without drug: 0.51; call: inactive

With Dok5, how do the results read?
combined z-score class: no change with or without drug; viability z-score with doxorubicin: 0.45; viability z-score without drug: -1.18; call: inactive

For Esrp2, what does the deposit list?
combined z-score class: no change with or without drug; viability z-score with doxorubicin: 0; viability z-score without drug: -0.84; call: inactive

What is on record for Shkbp1?
combined z-score class: no change with or without drug; viability z-score with doxorubicin: -0.9; viability z-score without drug: -0.51; call: inactive

What is on record for Or14c41?
combined z-score class: no change with or without drug; viability z-score with doxorubicin: -1.35; viability z-score without drug: -0.34; call: inactive
